This passage reports binding results from PMC3171153.

No constants are given. Whether binding was seen depends on the method and setting. In cells and extracts the contact can be indirect. Here binding means that the protein was enriched with, or labelled near, the bait; the list need not be complete.

This test has as its target T1, endogenous SHC1 of EGF-stimulated Rat2 fibroblasts (rat (endogenous in Rat2 fibroblasts)) (UniProt Q5M824).
T1 sequence (chain, pSer29 and pTyr313 detected by MS): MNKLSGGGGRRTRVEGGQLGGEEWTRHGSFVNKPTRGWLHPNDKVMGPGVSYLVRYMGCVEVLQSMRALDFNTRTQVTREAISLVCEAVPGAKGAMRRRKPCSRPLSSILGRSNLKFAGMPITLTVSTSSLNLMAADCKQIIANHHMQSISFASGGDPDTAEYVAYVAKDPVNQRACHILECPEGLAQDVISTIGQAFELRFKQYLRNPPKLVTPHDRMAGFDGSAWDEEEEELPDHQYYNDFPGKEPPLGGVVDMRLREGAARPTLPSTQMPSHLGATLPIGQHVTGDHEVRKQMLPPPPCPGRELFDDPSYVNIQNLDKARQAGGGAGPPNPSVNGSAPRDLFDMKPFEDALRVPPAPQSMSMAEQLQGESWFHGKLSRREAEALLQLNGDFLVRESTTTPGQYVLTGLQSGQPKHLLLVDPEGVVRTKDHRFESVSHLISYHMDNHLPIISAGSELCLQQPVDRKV
The experiment in a line: affinity purification with mass spectrometry; endogenous SHC1 captured with scFv 72_1A10 on FLAG-M2 agarose from lysate of Rat2 fibroblasts stimulated with EGF (100 ng/ml, 3 min); partners detected by MRM-based LC-MS with MS/MS validation.
For the substance “SOS1 (rat (endogenous in Rat2 fibroblasts))”, the binding result is given as “binds”.
With “GAB1 (rat (endogenous in Rat2 fibroblasts))” the entry was “binds”; with “PTPN11 (from UniProt P41499 1-593) (enzyme)”, “binds”; with “PTPN12 (rat (endogenous in Rat2 fibroblasts)) (enzyme)”, “binds”.
